Article PMC4005679, “In vitro assembly and activity of an archaeal CRISPR-Cas type I-A Cascade interference complex” (Nucleic Acids Research, 2014)
Results are given in words; binding and its absence hold for the method and conditions named. Binding seen in cells or lysates may run through a third protein. Here binding means that the protein was enriched with, or labelled near, the bait; the list need not be complete. Tags and fused reporters may be left off the sequences shown.

T1: Csa5 with a C-terminal 6× His-tag (Thermoproteus tenax) (UniProt G4RJZ0)
T1 sequence: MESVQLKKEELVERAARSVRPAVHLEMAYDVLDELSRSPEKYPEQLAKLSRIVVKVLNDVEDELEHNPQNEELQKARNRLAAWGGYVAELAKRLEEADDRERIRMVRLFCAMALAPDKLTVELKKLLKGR


Molecular target: T1, Csa5 with a C-terminal 6× His-tag (Thermoproteus tenax)
Experiment: affinity purification with mass spectrometry; 100 µg purified C-terminal His-tagged Csa5 as bait mixed with 1 mg T. tenax cell extract, cross-linked with 1% formaldehyde 15 min on ice, cobalt resin 30 min 4°C, washed with 40 mM imidazole, eluted at 290 mM imidazole; digest in solution, LC-MS/MS; only the target purified

Row | binding | Binder
1 | binds | Cas5a (T. tenax cell extract) (protein, UniProt G4RJZ2 1-226) MHYYLIEARAPLYSVKVVDVYQVASAYPLPTPHAVVGALGAAMAHAGMCRGLQCMKEAEGLVVAARPAAVGELAKFPAVLWRTRGVLEDKSLPAGLEDYAGARDAMVREYVYAHAVKILLVTRKRVPQHVIRLMARLGDSESYVSVVDVLEGKPRECGGLVNVAVRAAKARRGSYTLYRALDERGNRELFAYPVVEEGGVYRRGGVEVGSKVLCLGEAVFPEGDGW
2 | binds | Cas8a2 (T. tenax cell extract) (protein, UniProt G4RJZ5 1-361) MTQCPQEMITPGHGIIADALIMHGLIKILHIEGKMEGWAERRGERFVVCAERPDLNWIDQWEPMELLEIAAEFKAKGKDRASEEEEQRPYFGLVHDLSRSTVDPGNFSSWISDVREALYALKADFDLSEEHKEKRGEGRARSKKRGYYTLYLPLSGVYGKYVVENYGIRQSQYAVCATCFALSTLGYIYGTVKARVERRSSSGGGHDVFNLTFIPRERTSLRSLMALQRMAGLVEMRPGDLNELGAVVYMLSVGETIYAVREGVDILVWVTQRAGNFQRTVGVNIFRGDRLLEAIAEIKYRAPSWPKIARQLGSSLNVLGEYLAFGGDVYHVIRSVMADLGRKGGKLAGLEGLAEALKKIG
3 | binds | Cas7 (T. tenax cell extract) (protein, UniProt G4RJZ1 1-329) MRVAPPYVRAAGRFEAQLSVLTGAGNMGNYNMHAVAKVIHGGKAYEVPVLTGNALKHWHSVYLAEVYQDLGGTQLNEFCKKGVGLRGKNMSGEDASSEAEAIKDLCNDLHGFLLPDKQIKRDSLVRVSFAVPVLEEKNLEAASKFAVVHNRVDPFKRTQQVKSKEEQEGTEMMVFKQEYSSAVYGFAAAMDLGLSGVPLYQEGESGVDDRERALRIKSALVALLRLFNGVGSKQARALPIARLRELVIAISDSPIPNLVHGAYPDYVARSAELLTAYLKAVGKKGVVLCYGVDCPQSNNVLECKKADTLDDLFQEALRRALPGGQPARR
